In patent US20240029824A1 (University of Washington, published 2024):
Changes are numbered by the printed parent chain. These are yes or no findings as the source states them, for the method shown. Some entries that bind do so weakly or less than the wild type.

Legend:
[1] = target: T1, DHT03 chain C (SEQ ID NO: 59); assay: tricistronic expression, SEC, native MS; chains of one ABC heterotrimer
T1 sequence: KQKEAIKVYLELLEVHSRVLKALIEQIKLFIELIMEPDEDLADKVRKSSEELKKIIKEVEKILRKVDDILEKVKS

[2] = target: T2, DHT03 chain C; assay: co-expression, IMAC, SEC, native MS; chains of one ABC heterotrimer
T2 sequence: T1 sequence with M35K, E36R, E71Y

[3] = target: T3, DHT03_variant_ABCD-1 chain D; assay: native MS; loop-connectivity variant of DHT03, chains of one ABCD heterotetramer
T3 chain: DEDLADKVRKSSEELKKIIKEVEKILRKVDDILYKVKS

[4] = target: T2, DHT03 chain C; assay: X-ray crystal structure, 2.35 A
[5] = target: T4, DHT03_variant_AB-5 chain A; assay: native MS; loop-connectivity variant of DHT03, chains of one ABCD heterotetramer
T4 sequence: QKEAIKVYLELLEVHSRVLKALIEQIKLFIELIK

[6] = target: T2, DHT03 chain C; assay: X-ray crystal structure, 3.35 A
[7] = target: T2, DHT03 chain C; assay: tricistronic expression, SEC, native MS; chains of one ABC heterotrimer
[8] = target: T5, DHT03 chain B (SEQ ID NO: 55); assay: X-ray crystal structure, 3.35 A
T5 sequence: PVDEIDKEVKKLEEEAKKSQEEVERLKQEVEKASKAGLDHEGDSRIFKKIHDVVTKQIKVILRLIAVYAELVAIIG

[9] = target: T5, DHT03 chain B (SEQ ID NO: 55); assay: tricistronic expression, SEC, native MS; chains of one ABC heterotrimer
[10] = target: T6, DHT05_1arm_A/B/C62 chain C; assay: SEC and SAXS; chains of one ABC heterotrimer
T6 sequence: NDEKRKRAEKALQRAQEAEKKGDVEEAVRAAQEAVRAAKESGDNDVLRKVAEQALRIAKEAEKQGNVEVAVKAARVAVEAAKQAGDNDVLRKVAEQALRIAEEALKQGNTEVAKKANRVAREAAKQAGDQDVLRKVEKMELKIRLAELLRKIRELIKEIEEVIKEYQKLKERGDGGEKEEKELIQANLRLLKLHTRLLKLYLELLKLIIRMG

[11] = target: T7, DHT05 chain C; assay: co-expression, IMAC, SEC, native MS; chains of one ABC heterotrimer
T7 sequence: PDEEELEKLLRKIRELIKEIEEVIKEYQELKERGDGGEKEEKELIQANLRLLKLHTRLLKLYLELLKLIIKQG

[12] = target: T8, DHT03_variant_AB-5 chain B; assay: native MS; loop-connectivity variant of DHT03, AB heterodimer
T8 sequence: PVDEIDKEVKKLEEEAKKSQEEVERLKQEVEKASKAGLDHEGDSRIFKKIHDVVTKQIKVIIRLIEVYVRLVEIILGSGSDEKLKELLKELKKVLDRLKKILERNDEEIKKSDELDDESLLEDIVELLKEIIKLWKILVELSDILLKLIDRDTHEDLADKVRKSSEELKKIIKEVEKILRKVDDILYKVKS

[13] = target: T9, DHT05 chain C (SEQ ID NO: 98); assay: co-expression, SEC, SAXS; chains of one ABC heterotrimer
T9 sequence: T7 sequence with R57E

[14] = target: T10, DHT05_2arm_A62/B14(2)-LHD101B14/C chain B; assay: as above
T10 sequence: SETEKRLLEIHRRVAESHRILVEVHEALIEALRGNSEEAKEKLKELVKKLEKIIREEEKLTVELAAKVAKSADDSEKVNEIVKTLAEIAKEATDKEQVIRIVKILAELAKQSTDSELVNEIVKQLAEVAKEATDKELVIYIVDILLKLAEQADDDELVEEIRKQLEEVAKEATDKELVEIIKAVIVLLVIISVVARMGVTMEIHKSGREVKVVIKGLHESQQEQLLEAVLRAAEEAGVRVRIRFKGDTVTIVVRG

[15] = target: T11, DHT05_2arm_A62/B14/C chain B; assay: SEC and SAXS; chains of one ABC heterotrimer
T11 sequence: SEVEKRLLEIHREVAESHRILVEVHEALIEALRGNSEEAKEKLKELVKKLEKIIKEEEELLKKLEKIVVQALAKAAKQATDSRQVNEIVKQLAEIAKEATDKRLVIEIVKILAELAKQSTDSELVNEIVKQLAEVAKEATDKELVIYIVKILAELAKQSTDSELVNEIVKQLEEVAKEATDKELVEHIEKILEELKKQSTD

[16] = target: T12, DHT05 chain C (SEQ ID NO: 89); assay: SEC and SAXS; chains of one ABC heterotrimer
T12 sequence: T7 sequence with E29K

[17] = target: T13, DHT05 chain B (SEQ ID NO: 88); assay: SEC and SAXS; chains of one ABC heterotrimer
T13 sequence: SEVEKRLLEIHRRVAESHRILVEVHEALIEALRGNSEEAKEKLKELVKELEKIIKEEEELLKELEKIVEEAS

[18] = target: T14, DHT05 chain C (SEQ ID NO: 95); assay: SEC and SAXS; chains of one ABC heterotrimer
T14 sequence: T7 sequence with K42E

[19] = target: T15, DHT05 chain B; assay: co-expression, IMAC, SEC, native MS; chains of one ABC heterotrimer
T15 sequence: T13 sequence with E49K, E63K, E69K

[20] = target: T16, DHT03 chain B; assay: as above
T16 sequence: T5 sequence with L62I, A66E, A69V, E70R, A73E, G76L

[21] = target: T16, DHT03 chain B; assay: X-ray crystal structure, 2.35 A
[22] = target: T17, DHT03_1arm_A/B21/C chain B; assay: tricistronic expression, SEC, native MS; chains of one ABC heterotrimer
T17 sequence: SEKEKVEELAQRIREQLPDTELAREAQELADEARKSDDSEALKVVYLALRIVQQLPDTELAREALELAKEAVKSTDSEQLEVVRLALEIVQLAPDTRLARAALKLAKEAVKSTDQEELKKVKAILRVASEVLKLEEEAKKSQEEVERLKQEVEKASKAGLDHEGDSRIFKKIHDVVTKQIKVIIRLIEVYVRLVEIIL

[23] = target: T16, DHT03 chain B; assay: native MS; loop-connectivity variant of DHT03, chains of one ABCD heterotetramer

Measured: binding

B1: DHT03_1arm_A/B21/C chain B (designed binder)
chain: T17 sequence
binds: [1]

B2: DHT03 chain B (designed binder)
chain: T5 sequence with L62I, A66E, A69V, E70R, A73E, G76L
binds: [2] | [3] | [4] | [5]

B3: DHT03 chain B (SEQ ID NO: 55) (designed binder)
chain: T5 sequence
binds: [6] | [7]

B4: DHT03_1arm_A21/B/C chain A (designed binder)
chain: SEKEKVEELAQRIREQLPDTELAREAQELADEARKSDDSEALKVVYLALRIVQQLPDTELAREALELAKEAVKSTDSEALKVVYLALRIVQQLPDTELARLALELAKKAVEMTAQEVLEIARAALKAAQAFPNTELAELMLRLAEVAARVMKELERNDEEIKKSDELDDESLLEDIVELLKEIIKLWKILVEVSDVMLKLIS
binds: [6] | [8] | [7] | [9]

B5: DHT05 chain B (SEQ ID NO: 88) (designed binder)
chain: T13 sequence
binds: [10]

B6: DHT05 chain B (designed binder)
chain: T13 sequence with E49K, E63K, E69K
binds: [11]

QKEAIKVYLELLEVHSRVLKALIEQIKLFIELIK (designed binder) [DHT03_variant_AB-5 chain A]
binds: [3] | [12]

B7: DHT05_1arm_A62/B/C chain A (designed binder)
chain: NDEKRKRAEKALQRAQEAEKKGDVEEAVRAAQEAVRAAKESGDNDVLRKVAEQALRIAKEAEKQGNVEVAVKAARVAVEAAKQAGDNDVLRKVAEQALRIAKEAEKQGNVKVAADAVKVAVEAATQAGDQDVLRKASEQAKKVAKEAKKKGDHKVAVKATTLAVKAEFAAIQEEIKKLEEEAKKAEKGNGKEEIKELLLRLSELLARSLQLLAQQIEAIAKLIRG
binds: [13] | [14] | [15] | [16] | [17] | [18]

B8: DHT05 chain A (designed binder)
chain: PEEKKEIKRTTEEVKEEFRKIQEEIKKLEEEAKKAEKGNGKEEIKELLLRLSELLARSLQLLAQQIEAIAKLIRG
binds: [19] | [11] | [10]

B9: DHT03 chain A (designed binder)
chain: PEEEKLKELLKELKKVLDRLKKILERNDEEIKKSDELDDESLLEDIVELLKEIIKLWKILVELSDILLKLIS
binds: [20] | [2] | [21] | [4] | [22] | [23] | [5]
